According to patent US12419871B2, “Biomolecules involved in Alzheimer's disease” (ELECTROPHORETICS LIMITED, priority 2015, dated 2025):

Assay: TMTcalibrator quantification of regulated proteins in AD CSF versus control
Parameters: species or system human
Settings: CSF of AD patient versus control; non-modified peptides of each protein summed for three control and three AD cases

Row | Molecule | Log2 AD/Control
1 | P19022 (protein, UniProt P19022 1-906, looked up, full-length) MCRIAGALRTLLPLLAALLQASVEASGEIALCKTGFPEDVYSAVLSKDVHEGQPLLNVKFSNCNGKRKVQYESSEPADFKVDEDGMVYAVRSFPLSSEHAKFLIYAQDKETQEKWQVAVKLSLKPTLTEESVKESAEVEEIVFPRQFSKHSGHLQRQKRDWVIPPINLPENSRGPFPQELVRIRSDRDKNLSLRYSVTGPGADQPPTGIFIINPISGQLSVTKPLDREQIARFHLRAHAVDINGNQVENPIDIVINVIDMNDNRPEFLHQVWNGTVPEGSKPGTYVMTVTAIDADDPNALNGMLRYRIVSQAPSTPSPNMFTINNETGDIITVAAGLDREKVQQYTLIIQATDMEGNPTYGLSNTATAVITVTDVNDNPPEFTAMTFYGEVPENRVDIIVANLTVTDKDQPHTPAWNAVYRISGGDPTGRFAIQTDPNSNDGLVTVVKPIDFETNRMFVLTVAAENQVPLAKGIQHPPQSTATVSVTVIDVNENPYFAPNPKIIRQEEGLHAGTMLTTFTAQDPDRYMQQNIRYTKLSDPANWLKIDPVNGQITTIAVLDRESPNVKNNIYNATFLASDNGIPPMSGTGTLQIYLLDINDNAPQVLPQEAETCETPDPNSINITALDYDIDPNAGPFAFDLPLSPVTIKRNWTITRLNGDFAQLNLKIKFLEAGIYEVPIIITDSGNPPKSNISILRVKVCQCDSNGDCTDVDRIVGAGLGTGAIIAILLCIIILLILVLMFVVWMKRRDKERQAKQLLIDPEDDVRDNILKYDEEGGGEEDQDYDLSQLQQPDTVEPDAIKPVGIRRMDERPIHAEPQYPVRSAAPHPGDIGDFINEGLKAADNDPTAPPYDSLLVFDYEGSGSTAGSLSSLNSSSSGGEQDYDYLNDWGPRFKKLADMYGGGDD | 1.17
2 | Q96GW7 (protein, UniProt Q96GW7 1-911, looked up, full-length) MAQLFLPLLAALVLAQAPAALADVLEGDSSEDRAFRVRIAGDAPLQGVLGGALTIPCHVHYLRPPPSRRAVLGSPRVKWTFLSRGREAEVLVARGVRVKVNEAYRFRVALPAYPASLTDVSLALSELRPNDSGIYRCEVQHGIDDSSDAVEVKVKGVVFLYREGSARYAFSFSGAQEACARIGAHIATPEQLYAAYLGGYEQCDAGWLSDQTVRYPIQTPREACYGDMDGFPGVRNYGVVDPDDLYDVYCYAEDLNGELFLGDPPEKLTLEEARAYCQERGAEIATTGQLYAAWDGGLDHCSPGWLADGSVRYPIVTPSQRCGGGLPGVKTLFLFPNQTGFPNKHSRFNVYCFRDSAQPSAIPEASNPASNPASDGLEAIVTVTETLEELQLPQEATESESRGAIYSIPIMEDGGGGSSTPEDPAEAPRTLLEFETQSMVPPTGFSEEEGKALEEEEKYEDEEEKEEEEEEEEVEDEALWAWPSELSSPGPEASLPTEPAAQEESLSQAPARAVLQPGASPLPDGESEASRPPRVHGPPTETLPTPRERNLASPSPSTLVEAREVGEATGGPELSGVPRGESEETGSSEGAPSLLPATRAPEGTRELEAPSEDNSGRTAPAGTSVQAQPVLPTDSASRGGVAVVPASGDCVPSPCHNGGTCLEEEEGVRCLCLPGYGGDLCDVGLRFCNPGWDAFQGACYKHFSTRRSWEEAETQCRMYGAHLASISTPEEQDFINNRYREYQWIGLNDRTIEGDFLWSDGVPLLYENWNPGQPDSYFLSGENCVVMVWHDQGQWSDVPCNYHLSYTCKMGLVSCGPPPELPLAQVFGRPRLRYEVDTVLRYRCREGLAQRNLPLIRCQENGRWEAPQISCVPRRPARALHPEEDPEGRQGRLLGRWKALLIPPSSPMPGP | 0.69
